Reference: patent US12630596B2, “Engineered lysin-human defensin protein” (priority 2018, dated 2026)
Some results were stated once for a whole list of compounds, not compound by compound.

B1: LHD: Fusion of phage phiC2 lysin catalytic domain (LCD, 179aa), (GGGGS)3 linker and human alpha-defensin 5; SEQ ID NO:1 (protein)
chain: MKICITVGHSILKSGACTSADGVVNEYQYNKSLAPVLADTFRKEGHKVDVIICPEKQFKTKNEEKSYKIPRVNSGGYDLLIELHLNASNGQGKGSEVLYYSNKGLEYATRICDKLGTVFKNRGAKLDKRLYILNSSKPTAVLIESFFCDNKEDYDKAKKLGHEGIAKLIVEGVLNKNINGGGGSGGGGSGGGGSATCYCRTGRCATRESLSGVCEISGRLYRLCCR
B2: LCD: Catalytic domain (179 aa) of the lysin of C. difficile phage phiC2; SEQ ID NO:2; included as a control (protein)
chain: MKICITVGHSILKSGACTSADGVVNEYQYNKSLAPVLADTFRKEGHKVDVIICPEKQFKTKNEEKSYKIPRVNSGGYDLLIELHLNASNGQGKGSEVLYYSNKGLEYATRICDKLGTVFKNRGAKLDKRLYILNSSKPTAVLIESFFCDNKEDYDKAKKLGHEGIAKLIVEGVLNKNIN
notes: Catalytic domain (179 aa) of the lysin of C. difficile phage phiC2; included as a control

System: C. difficile strains M120, VPI 10463, CD630, LC693, 1377
Assay: Optical drop assay, lytic activity on other clinical epidemic C. difficile strains
Format: cell-based, Clostridium difficile
Settings: strains LC693 and 1337
Source text: C. difficile strains R20291 (ribotype 027), M120 (ribotype 078), VPI 10463 (ribotype 087; ATCC 43255), CD630 (ribotype 012), LC693 (ribotype unknown, ST201), and 1377 (ribotype 012) were used in this study. Strains M120 and VPI 10463 were provided by Dr. Joseph A. Sorg from Texas A&M University. Strains R20291 and CD630 were provided by Dr. Abraham L. Sonenshein from Tufts University. Strains 1377 and LC693 were epidemic clinical strains in China (Li, Liu et al. 2015, Peng, Liu et al. 2017).
The lytic activity of proteins LHD and LCD against C. difficile strains was determined as previously described (Wang, Euler et al. 2015). Briefly, C. difficile strains were cultured in an anaerobic chamber to mid-log phase, and the bacterial pellets were harvested by centrifugation at 3000×g for 5 min. Pellets were washed twice and re-suspended in sterilized ddH2O, and resuspensions were not buffered. Prior to tests, bacterial optical density at 600 nm (OD600) was adjusted to approximately 0.8-1.0. Proteins LHD and LCD were added into the cell re-suspension with the final concentration of 200 μg/ml. The drop in OD600 at 37° C. was measured every 10 minutes for 60 min˜90 min. Bacterial re-suspension with sterilized water was also set as a control. Three repeats were included in each test.

| Molecule | time to lyse strains [min] |
| --- | --- |
| B1 | 10 to 20 |
| B2 | 10 to 20 |
